Assay results from article PMC12548414.
The whole screen tested about 1,600 compounds, of which about 20 (1%) showed an effect of 50% or more. The list shows a part of the results.

tested on: T1, E. coli pLC1021 (luc-trpAt trans-translation reporter); design: species or system Escherichia coli pLC1021; luc-trpAt non-stop luciferase reporter; luminescence rises when trans-translation is inhibited; normalized to KKL-35 and DMSO; conditions: reporter signal, KKL-35 = 100%; rise means trans-translation inhibition; 2 h, 20 µM
T1 construct: pLC1021 luc-trpAt reporter strain
In short: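 Cells carrying the non-stop luc-trpAt reporter were exposed to 20 µM compound for 2 h at room temperature, then Bright-Glo was added and luminescence read at 560 nm after 10 min. Signals were normalised per plate to DMSO and 20 µM KKL-35 wells. Hits: activity one SD above the median; ≥2 biological repeats averaged.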

Point of comparison: O=C(COc1ccc2c(-c3ccccc3)cc(=O)oc2c1)OC1CCCCC1 [KKL-0860], “% activation” value 0%. Against it:
- CCOC(=O)c1c(-c2ccc(C)o2)csc1NC(=S)NC(=O)N(C)C [KKL-0563] — the same, 0%
- O=[N+]([O-])c1ccc(-c2nc(C(Cl)Cl)c3ccccc3n2)cc1 [KKL-1012] — higher, 5%
- CCc1ccc(Oc2nc([N+](=O)[O-])nn2C)cc1 [KKL-0611] — the same, 0%
- COc1cccc(-c2ccccc2NC(=O)C2CCN(Cc3ccc(F)c(OC)c3)CC2)c1 [KKL-1172] — the same, 0%
- COC(C)(C)C#CC(=O)c1cccc2ccccc12 [KKL-0420] — the same, 0%
- COc1ccc(Cc2cnc(NC(=O)c3ccccc3Cn3ccnc3)s2)cc1 [KKL-0463] — higher, 6%
- Cc1ccc(C(C)C)cc1OCCCCn1ccnc1 [KKL-0429] — higher, 8%
- COC(=O)CSc1cc(SCC(=O)OC)c(C#N)c(SCC(=O)OC)c1 [KKL-0452] — the same, 0%
- CCC(CC)c1cc([C@H]2CN3CC[C@H]2C[C@@H]3CNCc2ccc(OC)cc2)nc(-c2ccncc2)n1 [KKL-1599] — the same, 0%
- COc1cccc(C(=O)NC(=S)Nc2ccc(N3CCN(C(=O)c4cccs4)CC3)c(Cl)c2)c1 [KKL-1321] — the same, 0%
- COC(=O)C(CC(C)C)NC(=O)/C=C/c1ccc(Cl)cc1 (stereo not shown) [KKL-0983] — higher, 6%
- CN(Cc1ccnc(N2CCCC2)n1)Cc1cccc2ncccc12 [KKL-0680] — the same, 0%
- Cc1nn(-c2ccccc2)c2c1C(c1ccc(O)c(O)c1)N1C(=N2)C(Nc2ccccc2)=Nc2ccccc21 (stereo not shown) [KKL-0996] — the same, 0%
- CCN(Cc1ccccc1)c1ccc(C=NN=C(N)N)cc1 [KKL-0836] — higher, 18%
- COc1cccc(-c2cc(CC3(O)CCN(Cc4ccc(SC)cc4)CC3)on2)c1 [KKL-1131] — higher, 4%
- O=C(NCCC12CC3CC(CC(C3)C1)C2)c1ccc(Br)cc1 [KKL-0919] — the same, 0%
- Cc1cccc(-n2cc(CNCCc3nc(C)c[nH]3)c(-c3cccc(F)c3)n2)c1 [KKL-0510] — higher, 9%
- CCN(CC)CCn1c(=N)n(CC(O)COc2ccc(Cl)cc2Cl)c2ccccc21 (stereo not shown) [KKL-1256] — the same, 0%
- O=C(Nc1nc(-c2ccccn2)cs1)N1CCC(Cc2ccc(F)cc2)CC1 [KKL-1842] — higher, 28%
- O=C(NCc1ccco1)N1CCN(Cc2ccc3c(c2)CCO3)CC1 [KKL-1726] — the same, 0%
- CC1CCN(CCN=C(S)Nc2ccc(F)cc2)CC1 [KKL-0724] — the same, 0%
- CC1=Nc2c(ccc3cccnc23)C1(C)C [KKL-0451] — the same, 0%
- Cc1ccc2c(C)c(C(=O)N3CCn4cnnc4C3)oc2c1 [KKL-1206] — the same, 0%
- N=c1c2c(ncn1Cc1ccco1)Oc1c(ccc3ccccc13)C2c1ccccc1 (stereo not shown) [KKL-1009] — the same, 0%
- O=c1c2ccccc2nc(/C=C/c2ccc([N+](=O)[O-])o2)n1-c1cccc(O)c1 [KKL-0713] — the same, 0%
- CCc1ccccc1-n1c(=O)oc2ccc(Cl)cc2c1=O [KKL-0917] — higher, 1%
- O=C(NCCCn1ccnc1)c1cccnc1Nc1cccc(C(F)(F)F)c1 [KKL-0554] — higher, 15%
- CC(C)(C)c1cc(NCc2ccccn2)n2ncc(-c3ccc(Cl)cc3)c2n1 [KKL-1001] — higher, 4%
- COc1cc(Nc2ccccc2)ccc1NS(=O)(=O)c1c(C)noc1C [KKL-1713] — higher, 6%
- Clc1ccc(OCCCn2ccnc2)cc1Cl [KKL-1272] — the same, 0%
- CS(=O)(=O)Cc1nc2ccccc2oc1=O [KKL-1609] — the same, 0%
- Cc1ccc(Nc2c(-c3ccccn3)nc3cccc(C)n23)cc1 [KKL-1136] — the same, 0%
- Cc1cccc(-n2cc(CN(C)Cc3cccnc3)c(-c3cccc(F)c3)n2)c1 [KKL-0648] — higher, 12%
- CCOC(=O)C1CCN(C2=NC(=O)/C(=C\c3ccc(Cl)cc3Cl)S2)CC1 [KKL-0394] — the same, 0%
- N#C/C(=C/c1cn(-c2ccccc2)nc1-c1cccc(OCc2ccc(F)cc2)c1)C(=O)NCCCn1ccnc1 [KKL-0888] — the same, 0%
- Cc1ccc(-c2csc(NC(=O)CSc3nc4ccccc4c(=O)n3CCCN(C)C)n2)cc1 [KKL-0801] — the same, 0%
- COc1ccc(Nc2nc(-c3ccccn3)cs2)c(OC)c1 [KKL-0921] — the same, 0%
- Cc1ccc(-c2nnc3sc(CCc4ccccc4)nn23)cc1 [KKL-1048] — the same, 0%
- c1ccc(CCNc2cc(-c3ccccc3)nc3nncn23)cc1 [KKL-1689] — higher, 2%
- CC(=O)Oc1cccc2ccc(/C=C/c3cccs3)nc12 [KKL-1297] — higher, 33%
- C=CCN(CC=C)C(=S)NC(=O)c1ccc(F)cc1 [KKL-0580] — higher, 20%
- Nc1ccc(S(=O)(=O)Nc2ccnn2-c2ccccc2)cc1 [KKL-1876] — higher, 2%
- Cc1ccc(OC(=O)c2ccccc2Cl)cc1C [KKL-0329] — the same, 0%
- N#Cc1cc(Oc2ccc(OCc3ccccc3)cc2)c([N+](=O)[O-])cc1C#N [KKL-0738] — higher, 5%
- COC(=O)COc1ccc(NC(=O)c2ccc(-c3ccccc3)cc2)cc1 [KKL-1562] — higher, 4%
- Cc1ccc(NC(=O)CN2CCC(c3nc4cc(Cl)ccc4[nH]3)CC2)cc1 [KKL-1247] — the same, 0%
- CC1CCCC(NCC(O)COC(c2ccc(F)cc2)c2ccc(F)cc2)C1C (stereo not shown) [KKL-0822] — the same, 0%
- CCCCCCCn1c(NC(=O)CC)nc2ccccc21 [KKL-0373] — higher, 27%
- Cc1cccc(C(=O)Nc2ccc(C(=O)/C=C/c3cccnc3)cc2)c1 [KKL-1084] — higher, 5%
- CC(C)(C)c1ccc(C(=O)NC(=S)NCc2ccco2)cc1 [KKL-0564] — the same, 0%
- CC(C)(C)c1ccc(C(=O)CC(=O)c2cc(Cl)ccc2O)cc1 [KKL-1081] — higher, 3%
- COc1ccc(O)c(CN2CCCC(N3CCN(c4cccc(C(F)(F)F)c4)CC3)C2)c1 (stereo not shown) [KKL-0660] — higher, 1%
- Cc1ccc(CSCC(=O)Nc2ccc(Cl)c(Cl)c2)cc1 [KKL-1340] — the same, 0%
- C[C@@H](NCCc1nc(-c2cn(C)c3ccccc23)no1)C1CCCCC1 [KKL-1716] — higher, 3%
- COc1cc(/C=C/c2ccc3c([N+](=O)[O-])cccc3n2)ccc1OCC(=O)O [KKL-0939] — the same, 0%
- CN(C)c1ccc(Nc2nc(-c3ccccn3)cs2)cc1 [KKL-0770] — the same, 0%
- Cc1ccc2oc(C(=O)N3CCN(Cc4ccccc4F)C[C@@H]3C(C)C)cc(=O)c2c1 [KKL-1268] — the same, 0%
- NC(=O)c1ccc(CN(C2CC2)S(=O)(=O)c2ccccc2F)cc1 [KKL-1719] — the same, 0%
- COc1cccc(OC)c1-c1cnnc(NCc2cccc(SC)c2)n1 [KKL-0627] — higher, 1%
- OC(COCCC12CC3CC(CC(C3)C1)C2)CN1CCc2ccccc2C1 (stereo not shown) [KKL-0790] — the same, 0%
- O=C(Oc1cccc2cccnc12)c1ccccc1F [KKL-0435] — the same, 0%
- CCOc1ccc(NC(=O)CSc2nc3ccc([N+](=O)[O-])cc3s2)cc1 [KKL-1417] — the same, 0%
- CCc1c(C)sc2ncn(C3CCN(C(=O)c4nccc5ccccc45)CC3)c(=O)c12 [KKL-0513] — higher, 3%
- Clc1ccc(Nc2nc(-c3ccccn3)cs2)nc1 [KKL-1793] — the same, 0%
- CC(C)(C)c1cc(Cl)c(O)c(NC(=S)NC(=O)c2cccnc2)c1 [KKL-1270] — the same, 0%
- CC(=O)c1ccc(NCCC(=O)c2ccco2)cc1 [KKL-1470] — higher, 4%
- CNc1nc(SCC(=O)N(C)Cc2ccc(Cl)s2)nc2ccccc12 [KKL-1768] — the same, 0%
- Cc1ccc(OCC(O)CN2CCN(CC(O)COc3ccc(C)cc3C)CC2)c(C)c1 (stereo not shown) [KKL-1486] — higher, 2%
- Cc1sc2nc(-c3ccccn3)nc(O)c2c1-c1ccccc1 [KKL-0802] — higher, 26%
- Cc1ccc(-n2cc(CNC(C)c3csc(C)n3)c(-c3cccc(C)c3)n2)cc1 (stereo not shown) [KKL-0500] — the same, 0%
- CCN1CCN(c2cc3c(cc2F)c(=O)c(C(=O)O)cn3C2CC2)CC1 [KKL-0903] — higher, 6%
- O=C(CCl)N(c1ccccc1)c1c[nH]c2ccccc12 [KKL-0995] — the same, 0%
- Cn1nc([N+](=O)[O-])nc1Sc1nnc(-c2cccnc2)o1 [KKL-1345] — the same, 0%
- COC(=O)CSc1nc2c(c(-c3ccco3)c1C#N)CCCC2 [KKL-0885] — higher, 8%
- O=C1N(c2ccc3c(c2)OCCO3)C(c2ccccc2)C1(F)F (stereo not shown) [KKL-0848] — the same, 0%
- O=C(CCSc1ccc(Cl)cc1)Nc1nc(-c2ccccn2)cs1 [KKL-1742] — higher, 10%
- Cc1cccc(OCc2nnc(SCC(=O)OC3CCCCC3)o2)c1 [KKL-1659] — the same, 0%
- Cn1c(NC(=O)c2ccccc2)nc2ccccc21 [KKL-1377] — the same, 0%
- Cc1ccc2nc(C)c(-c3ccn(Cc4ccccc4)n3)n2c1 [KKL-1873] — higher, 3%
- N#Cc1nc(-c2ccccc2F)oc1NCCc1ccccc1 [KKL-1796] — the same, 0%
- Cc1ccc(C2CC(C(F)(F)F)n3nc(C(=O)NCc4ccco4)cc3N2)cc1 (stereo not shown) [KKL-1125] — the same, 0%
- Cc1ccc(SCCNC(=O)c2c(-c3ccccc3)noc2C)cc1 [KKL-1806] — higher, 1%
- O=C(NCc1ccco1)N1CCN(Cc2ccc(Cl)s2)CC1 [KKL-1727] — higher, 3%
- Cc1cc(OC(=O)C2CC2)c2c3c(c(=O)oc2c1)CCCC3 [KKL-0717] — higher, 10%
- CCC1c2ccc(C)n2CCN1Cc1cnn(Cc2ccccc2)c1C (stereo not shown) [KKL-0515] — the same, 0%
- Cc1cccc(OCCCCc2c(C)n[nH]c2C)c1C [KKL-1099] — higher, 1%
- N#Cc1cc2c(ccc3ccccc32)oc1=O [KKL-1386] — the same, 0%
